This is an account of results in doi:10.1101/2021.05.12.443731.

The chains behind the UniProt entries cited, without tags or fusion partners.
UniProt Q00610: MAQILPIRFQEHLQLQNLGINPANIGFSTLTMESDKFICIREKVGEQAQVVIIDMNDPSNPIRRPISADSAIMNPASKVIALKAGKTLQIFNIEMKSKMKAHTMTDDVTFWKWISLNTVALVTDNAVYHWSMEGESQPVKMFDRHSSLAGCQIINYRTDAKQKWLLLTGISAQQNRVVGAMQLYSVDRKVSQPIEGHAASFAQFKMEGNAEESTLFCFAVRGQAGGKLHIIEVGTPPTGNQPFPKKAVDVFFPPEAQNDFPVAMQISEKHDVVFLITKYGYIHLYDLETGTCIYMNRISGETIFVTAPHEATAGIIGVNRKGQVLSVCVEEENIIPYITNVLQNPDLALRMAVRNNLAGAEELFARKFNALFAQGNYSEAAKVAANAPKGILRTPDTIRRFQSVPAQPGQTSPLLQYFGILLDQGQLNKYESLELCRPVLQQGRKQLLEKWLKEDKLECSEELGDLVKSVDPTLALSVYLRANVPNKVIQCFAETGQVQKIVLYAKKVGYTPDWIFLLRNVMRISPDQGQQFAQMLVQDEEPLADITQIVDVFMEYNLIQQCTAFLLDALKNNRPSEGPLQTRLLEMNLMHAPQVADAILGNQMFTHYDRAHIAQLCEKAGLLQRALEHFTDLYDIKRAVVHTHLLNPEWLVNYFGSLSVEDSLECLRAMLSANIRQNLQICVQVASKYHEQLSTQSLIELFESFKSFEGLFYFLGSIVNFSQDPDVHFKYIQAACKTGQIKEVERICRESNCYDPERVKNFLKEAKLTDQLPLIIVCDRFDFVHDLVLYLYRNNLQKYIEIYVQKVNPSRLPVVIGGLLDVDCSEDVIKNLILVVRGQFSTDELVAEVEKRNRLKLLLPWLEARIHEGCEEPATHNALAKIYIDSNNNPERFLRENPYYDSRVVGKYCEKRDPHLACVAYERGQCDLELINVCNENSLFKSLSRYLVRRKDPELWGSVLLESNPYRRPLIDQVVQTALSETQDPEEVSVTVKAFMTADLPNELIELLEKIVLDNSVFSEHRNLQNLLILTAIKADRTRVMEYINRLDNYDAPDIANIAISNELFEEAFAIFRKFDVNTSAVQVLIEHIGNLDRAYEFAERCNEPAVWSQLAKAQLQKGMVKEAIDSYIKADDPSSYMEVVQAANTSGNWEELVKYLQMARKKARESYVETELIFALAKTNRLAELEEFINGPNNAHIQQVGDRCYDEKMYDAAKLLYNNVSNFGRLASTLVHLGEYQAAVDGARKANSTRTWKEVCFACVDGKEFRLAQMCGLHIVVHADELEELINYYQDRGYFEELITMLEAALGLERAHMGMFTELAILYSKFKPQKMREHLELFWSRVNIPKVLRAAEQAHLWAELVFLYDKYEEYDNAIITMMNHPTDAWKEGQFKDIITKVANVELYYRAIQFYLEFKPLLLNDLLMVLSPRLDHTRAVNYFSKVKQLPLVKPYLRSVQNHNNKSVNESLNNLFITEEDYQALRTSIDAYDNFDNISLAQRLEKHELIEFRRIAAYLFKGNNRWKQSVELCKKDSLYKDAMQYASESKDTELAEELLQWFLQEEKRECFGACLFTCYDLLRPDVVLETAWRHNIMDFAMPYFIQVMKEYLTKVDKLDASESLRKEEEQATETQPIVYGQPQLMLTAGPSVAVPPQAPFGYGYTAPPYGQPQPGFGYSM
UniProt Q92841: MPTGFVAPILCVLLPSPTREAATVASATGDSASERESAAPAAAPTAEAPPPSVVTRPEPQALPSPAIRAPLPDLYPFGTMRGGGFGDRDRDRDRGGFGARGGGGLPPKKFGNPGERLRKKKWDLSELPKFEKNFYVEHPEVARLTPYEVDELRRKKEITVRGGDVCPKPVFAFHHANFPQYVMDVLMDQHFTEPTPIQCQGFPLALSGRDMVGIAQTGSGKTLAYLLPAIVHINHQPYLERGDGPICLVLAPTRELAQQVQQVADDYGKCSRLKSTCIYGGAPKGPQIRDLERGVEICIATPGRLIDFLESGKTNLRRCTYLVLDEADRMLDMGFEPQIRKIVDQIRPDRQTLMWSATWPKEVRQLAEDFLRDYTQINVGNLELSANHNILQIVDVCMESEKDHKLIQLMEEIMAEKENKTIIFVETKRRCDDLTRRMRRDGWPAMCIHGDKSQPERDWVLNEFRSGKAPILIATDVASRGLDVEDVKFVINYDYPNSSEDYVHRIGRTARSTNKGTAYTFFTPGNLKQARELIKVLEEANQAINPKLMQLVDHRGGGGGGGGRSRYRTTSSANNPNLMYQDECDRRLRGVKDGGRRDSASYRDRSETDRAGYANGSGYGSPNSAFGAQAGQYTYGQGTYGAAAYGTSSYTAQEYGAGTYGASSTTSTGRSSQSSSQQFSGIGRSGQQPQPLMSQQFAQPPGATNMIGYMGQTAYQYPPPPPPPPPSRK
UniProt Q8TAQ2: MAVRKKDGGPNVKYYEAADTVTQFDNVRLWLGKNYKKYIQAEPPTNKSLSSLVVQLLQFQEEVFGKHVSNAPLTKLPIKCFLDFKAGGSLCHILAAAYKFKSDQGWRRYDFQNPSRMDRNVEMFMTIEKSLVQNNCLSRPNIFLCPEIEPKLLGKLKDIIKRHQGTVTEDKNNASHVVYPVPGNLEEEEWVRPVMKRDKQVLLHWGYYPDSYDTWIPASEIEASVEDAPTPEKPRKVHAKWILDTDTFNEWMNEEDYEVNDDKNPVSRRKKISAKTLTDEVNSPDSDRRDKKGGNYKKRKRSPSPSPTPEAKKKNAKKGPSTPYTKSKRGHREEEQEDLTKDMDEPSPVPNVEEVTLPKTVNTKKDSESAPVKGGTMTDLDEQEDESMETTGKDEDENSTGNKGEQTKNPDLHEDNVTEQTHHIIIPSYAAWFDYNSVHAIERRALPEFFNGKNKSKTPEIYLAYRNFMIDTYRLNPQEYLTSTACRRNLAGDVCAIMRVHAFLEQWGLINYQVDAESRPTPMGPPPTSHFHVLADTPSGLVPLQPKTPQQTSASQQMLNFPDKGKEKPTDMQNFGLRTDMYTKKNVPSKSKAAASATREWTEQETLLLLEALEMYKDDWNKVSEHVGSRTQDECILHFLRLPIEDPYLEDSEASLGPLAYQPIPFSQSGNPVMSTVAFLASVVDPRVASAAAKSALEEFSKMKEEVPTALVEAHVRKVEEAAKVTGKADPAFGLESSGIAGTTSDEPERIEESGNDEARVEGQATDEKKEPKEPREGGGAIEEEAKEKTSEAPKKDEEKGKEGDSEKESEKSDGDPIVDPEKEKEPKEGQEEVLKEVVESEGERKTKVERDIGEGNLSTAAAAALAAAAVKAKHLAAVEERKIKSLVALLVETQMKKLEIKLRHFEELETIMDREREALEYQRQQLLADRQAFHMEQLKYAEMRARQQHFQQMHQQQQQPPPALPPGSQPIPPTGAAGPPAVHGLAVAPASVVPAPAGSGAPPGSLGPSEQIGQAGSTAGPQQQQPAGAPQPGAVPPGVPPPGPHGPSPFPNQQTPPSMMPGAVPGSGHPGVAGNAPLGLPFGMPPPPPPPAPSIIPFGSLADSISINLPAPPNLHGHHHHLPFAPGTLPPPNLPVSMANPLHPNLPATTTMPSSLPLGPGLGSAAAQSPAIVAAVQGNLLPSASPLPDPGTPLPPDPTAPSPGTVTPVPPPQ
UniProt Q969G3: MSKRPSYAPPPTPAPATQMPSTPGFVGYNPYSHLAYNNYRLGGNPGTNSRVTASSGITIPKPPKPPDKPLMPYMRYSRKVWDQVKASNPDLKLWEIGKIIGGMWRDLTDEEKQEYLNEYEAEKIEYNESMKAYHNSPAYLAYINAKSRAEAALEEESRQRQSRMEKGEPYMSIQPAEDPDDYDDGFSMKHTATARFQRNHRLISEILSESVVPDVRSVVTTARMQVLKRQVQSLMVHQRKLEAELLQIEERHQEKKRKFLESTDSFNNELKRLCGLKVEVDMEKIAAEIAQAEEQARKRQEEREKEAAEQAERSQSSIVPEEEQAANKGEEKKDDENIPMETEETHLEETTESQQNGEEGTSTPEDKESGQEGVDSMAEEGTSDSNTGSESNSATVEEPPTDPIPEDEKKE
UniProt P19474: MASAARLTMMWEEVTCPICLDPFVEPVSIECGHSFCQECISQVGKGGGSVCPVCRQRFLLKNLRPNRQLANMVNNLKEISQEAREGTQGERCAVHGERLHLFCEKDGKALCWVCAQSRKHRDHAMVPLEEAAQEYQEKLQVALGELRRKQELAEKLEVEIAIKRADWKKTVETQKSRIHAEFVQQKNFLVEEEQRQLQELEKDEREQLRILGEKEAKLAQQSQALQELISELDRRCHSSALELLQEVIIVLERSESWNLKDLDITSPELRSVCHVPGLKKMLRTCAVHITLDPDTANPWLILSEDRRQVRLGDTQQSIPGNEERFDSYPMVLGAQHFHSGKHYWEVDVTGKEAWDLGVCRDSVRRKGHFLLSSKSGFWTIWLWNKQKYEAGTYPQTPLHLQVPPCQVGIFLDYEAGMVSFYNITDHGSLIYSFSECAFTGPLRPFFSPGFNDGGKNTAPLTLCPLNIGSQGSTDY
UniProt Q8IZH2: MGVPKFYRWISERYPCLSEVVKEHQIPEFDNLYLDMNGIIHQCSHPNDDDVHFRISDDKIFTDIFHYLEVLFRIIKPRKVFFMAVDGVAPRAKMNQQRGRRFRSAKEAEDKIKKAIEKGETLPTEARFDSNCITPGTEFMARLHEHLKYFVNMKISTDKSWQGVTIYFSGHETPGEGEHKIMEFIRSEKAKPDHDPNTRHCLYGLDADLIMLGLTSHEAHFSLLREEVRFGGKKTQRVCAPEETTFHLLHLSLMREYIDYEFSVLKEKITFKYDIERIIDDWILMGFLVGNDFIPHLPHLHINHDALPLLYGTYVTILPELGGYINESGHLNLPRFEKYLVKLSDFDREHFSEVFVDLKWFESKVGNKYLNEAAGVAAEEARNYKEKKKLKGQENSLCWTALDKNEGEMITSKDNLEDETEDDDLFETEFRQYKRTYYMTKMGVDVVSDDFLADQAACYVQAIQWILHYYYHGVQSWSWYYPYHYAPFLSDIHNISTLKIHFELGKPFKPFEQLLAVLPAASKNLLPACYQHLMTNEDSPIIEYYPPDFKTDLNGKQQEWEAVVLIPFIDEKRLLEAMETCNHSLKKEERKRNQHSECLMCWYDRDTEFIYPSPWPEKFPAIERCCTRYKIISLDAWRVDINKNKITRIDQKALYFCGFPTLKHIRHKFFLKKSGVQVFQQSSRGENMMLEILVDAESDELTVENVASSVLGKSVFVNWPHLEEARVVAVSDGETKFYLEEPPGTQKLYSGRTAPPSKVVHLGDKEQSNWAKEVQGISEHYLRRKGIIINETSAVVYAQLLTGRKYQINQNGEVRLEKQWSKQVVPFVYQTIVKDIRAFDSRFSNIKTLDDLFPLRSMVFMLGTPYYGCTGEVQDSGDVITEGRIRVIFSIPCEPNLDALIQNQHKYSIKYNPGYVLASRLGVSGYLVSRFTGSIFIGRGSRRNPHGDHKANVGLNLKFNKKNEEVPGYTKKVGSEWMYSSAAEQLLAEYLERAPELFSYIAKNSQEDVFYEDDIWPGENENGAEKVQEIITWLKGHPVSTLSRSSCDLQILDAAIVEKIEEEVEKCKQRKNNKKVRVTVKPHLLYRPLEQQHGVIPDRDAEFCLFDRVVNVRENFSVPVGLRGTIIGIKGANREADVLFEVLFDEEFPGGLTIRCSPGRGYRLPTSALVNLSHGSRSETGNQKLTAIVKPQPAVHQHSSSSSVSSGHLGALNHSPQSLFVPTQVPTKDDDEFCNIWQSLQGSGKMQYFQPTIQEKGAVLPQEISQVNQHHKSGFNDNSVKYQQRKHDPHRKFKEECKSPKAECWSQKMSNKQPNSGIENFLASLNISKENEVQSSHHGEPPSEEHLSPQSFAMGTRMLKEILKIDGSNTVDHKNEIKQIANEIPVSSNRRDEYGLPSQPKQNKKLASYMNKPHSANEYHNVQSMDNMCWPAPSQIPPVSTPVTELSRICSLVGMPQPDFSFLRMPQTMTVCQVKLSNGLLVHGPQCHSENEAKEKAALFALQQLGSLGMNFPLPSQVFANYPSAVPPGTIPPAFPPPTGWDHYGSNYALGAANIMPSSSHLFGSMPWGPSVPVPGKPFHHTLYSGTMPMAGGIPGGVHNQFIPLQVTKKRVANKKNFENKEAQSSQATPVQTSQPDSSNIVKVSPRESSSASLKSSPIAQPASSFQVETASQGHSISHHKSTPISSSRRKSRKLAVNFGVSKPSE
UniProt Q15365: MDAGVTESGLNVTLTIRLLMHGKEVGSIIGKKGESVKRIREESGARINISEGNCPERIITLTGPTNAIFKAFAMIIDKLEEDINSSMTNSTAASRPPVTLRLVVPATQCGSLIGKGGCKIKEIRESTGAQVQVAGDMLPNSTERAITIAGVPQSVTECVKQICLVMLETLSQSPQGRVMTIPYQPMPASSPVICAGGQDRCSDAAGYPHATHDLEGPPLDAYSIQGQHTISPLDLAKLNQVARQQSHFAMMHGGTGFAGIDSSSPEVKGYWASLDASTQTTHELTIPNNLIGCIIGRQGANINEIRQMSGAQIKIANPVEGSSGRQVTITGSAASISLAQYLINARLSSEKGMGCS

These are yes or no findings as the source states them, for the method shown. Binding seen in cells or lysates may run through a third protein. A yes stands for co-enrichment or nearness to the bait. Other partners may have been found.

The experiment concerns the target T1, FOSL1 (human (endogenous in Th17 cells)) (UniProt P15407).
T1 sequence: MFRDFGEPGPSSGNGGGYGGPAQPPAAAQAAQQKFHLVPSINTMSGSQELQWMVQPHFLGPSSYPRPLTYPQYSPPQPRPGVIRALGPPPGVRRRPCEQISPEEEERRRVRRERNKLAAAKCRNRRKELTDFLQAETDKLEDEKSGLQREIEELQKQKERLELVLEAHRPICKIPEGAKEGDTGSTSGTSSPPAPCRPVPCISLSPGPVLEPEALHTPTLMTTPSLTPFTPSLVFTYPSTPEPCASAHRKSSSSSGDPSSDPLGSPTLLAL
The experiment can be described thus: affinity purification with mass spectrometry.

Consider CLTC (from UniProt Q00610 1-1675), for which the binding result is given as “binds”.
On to COL1A2 (from UniProt P08123 80-1119), for which the binding entry was “binds”.
In the case of DDX17 (from UniProt Q92841 1-729), the binding result is given as “binds”.
Then FUBP3 (from UniProt Q96I24 1-572), with “binds”.
For the molecule SMARCA2 (from UniProt P51531 1-1590), the binding result is on record as “binds”.
As to SMARCB1 (from UniProt Q12824 1-385), the binding entry is listed as “binds”.
As to SMARCC1 (from UniProt Q92922 1-1105), the binding result is “binds”.
As to SMARCC2 (from UniProt Q8TAQ2 1-1214), the binding entry is “binds”.
With SMARCD2 (from UniProt Q92925 1-531), the binding result is on record as “binds”.
Turning to SMARCE1 (from UniProt Q969G3 1-411), the binding entry is on record as “binds”.
Turning to TRIM21 (from UniProt P19474 1-475), the binding result is listed as “binds”.
Take UPF2 (from UniProt Q9HAU5 1-1272): the binding entry is “binds”.
Turning to XRN1 (from UniProt Q8IZH2 1-1706), the binding result is recorded as “binds”.
For the molecule “histone deacetylase 2 (HDAC2) (from UniProt Q92769 1-488)”, the binding result is listed as “binds”.
In the case of “poly-C binding protein 1 (PCBP1) (from UniProt Q15365 1-356)”, the binding result was “binds”.

B1: HNRNPR (protein, UniProt O43390 1-633)
chain: MANQVNGNAVQLKEEEEPMDTSSVTHTEHYKTLIEAGLPQKVAERLDEIFQTGLVAYVDLDERAIDALREFNEEGALSVLQQFKESDLSHVQNKSAFLCGVMKTYRQREKQGSKVQESTKGPDEAKIKALLERTGYTLDVTTGQRKYGGPPPDSVYSGVQPGIGTEVFVGKIPRDLYEDELVPLFEKAGPIWDLRLMMDPLSGQNRGYAFITFCGKEAAQEAVKLCDSYEIRPGKHLGVCISVANNRLFVGSIPKNKTKENILEEFSKVTEGLVDVILYHQPDDKKKNRGFCFLEYEDHKSAAQARRRLMSGKVKVWGNVVTVEWADPVEEPDPEVMAKVKVLFVRNLATTVTEEILEKSFSEFGKLERVKKLKDYAFVHFEDRGAAVKAMDEMNGKEIEGEEIEIVLAKPPDKKRKERQAARQASRSTAYEDYYYHPPPRMPPPIRGRGRGGGRGGYGYPPDYYGYEDYYDDYYGYDYHDYRGGYEDPYYGYDDGYAVRGRGGGRGGRGAPPPPRGRGAPPPRGRAGYSQRGAPLGPPRGSRGGRGGPAQQQRGRGSRGSRGNRGGNVGGKRKADGYNQPDSKRRQTNNQQNWGSQPIAQQPLQQGGDYSGNYGYNNDNQEFYQDTYGQQWK
B1: the binding entry is “binds”.

B2: RBM14 (protein, UniProt Q96PK6 1-669)
chain: MKIFVGNVDGADTTPEELAALFAPYGTVMSCAVMKQFAFVHMRENAGALRAIEALHGHELRPGRALVVEMSRPRPLNTWKIFVGNVSAACTSQELRSLFERRGRVIECDVVKDYAFVHMEKEADAKAAIAQLNGKEVKGKRINVELSTKGQKKGPGLAVQSGDKTKKPGAGDTAFPGTGGFSATFDYQQAFGNSTGGFDGQARQPTPPFFGRDRSPLRRSPPRASYVAPLTAQPATYRAQPSVSLGAAYRAQPSASLGVGYRTQPMTAQAASYRAQPSVSLGAPYRGQLASPSSQSAAASSLGPYGGAQPSASALSSYGGQAAAASSLNSYGAQGSSLASYGNQPSSYGAQAASSYGVRAAASSYNTQGAASSLGSYGAQAASYGAQSAASSLAYGAQAASYNAQPSASYNAQSAPYAAQQAASYSSQPAAYVAQPATAAAYASQPAAYAAQATTPMAGSYGAQPVVQTQLNSYGAQASMGLSGSYGAQSAAAATGSYGAAAAYGAQPSATLAAPYRTQSSASLAASYAAQQHPQAAASYRGQPGNAYDGAGQPSAAYLSMSQGAVANANSTPPPYERTRLSPPRASYDDPYKKAVAMSKRYGSDRRLAELSDYRRLSESQLSFRRSPTKSSLDYRRLPDAHSDYARYSGSYNDYLRAAQMHSGYQRRM
In the case of B2, the binding entry was “binds”.

B3: ILF3 (protein, UniProt Q12906 1-894)
chain: MRPMRIFVNDDRHVMAKHSSVYPTQEELEAVQNMVSHTERALKAVSDWIDEQEKGSSEQAESDNMDVPPEDDSKEGAGEQKTEHMTRTLRGVMRVGLVAKGLLLKGDLDLELVLLCKEKPTTALLDKVADNLAIQLAAVTEDKYEILQSVDDAAIVIKNTKEPPLSLTIHLTSPVVREEMEKVLAGETLSVNDPPDVLDRQKCLAALASLRHAKWFQARANGLKSCVIVIRVLRDLCTRVPTWGPLRGWPLELLCEKSIGTANRPMGAGEALRRVLECLASGIVMPDGSGIYDPCEKEATDAIGHLDRQQREDITQSAQHALRLAAFGQLHKVLGMDPLPSKMPKKPKNENPVDYTVQIPPSTTYAITPMKRPMEEDGEEKSPSKKKKKIQKKEEKAEPPQAMNALMRLNQLKPGLQYKLVSQTGPVHAPIFTMSVEVDGNSFEASGPSKKTAKLHVAVKVLQDMGLPTGAEGRDSSKGEDSAEETEAKPAVVAPAPVVEAVSTPSAAFPSDATAEQGPILTKHGKNPVMELNEKRRGLKYELISETGGSHDKRFVMEVEVDGQKFQGAGSNKKVAKAYAALAALEKLFPDTPLALDANKKKRAPVPVRGGPKFAAKPHNPGFGMGGPMHNEVPPPPNLRGRGRGGSIRGRGRGRGFGGANHGGYMNAGAGYGSYGYGGNSATAGYSQFYSNGGHSGNASGGGGGGGGGSSGYGSYYQGDNYNSPVPPKHAGKKQPHGGQQKPSYGSGYQSHQGQQQSYNQSPYSNYGPPQGKQKGYNHGQGSYSYSNSYNSPGGGGGSDYNYESKFNYSGSGGRSGGNSYGSGGASYNPGSHGGYGGGSGGGSSYQGKQGGYSQSNYNSPGSGQNYSGPPSSYQSSQGGYGRNADHSMNYQYR
As to B3, the binding entry is on record as “binds”.

B4: UPF1 (protein, UniProt Q92900 1-1129)
chain: MSVEAYGPSSQTLTFLDTEEAELLGADTQGSEFEFTDFTLPSQTQTPPGGPGGPGGGGAGGPGGAGAGAAAGQLDAQVGPEGILQNGAVDDSVAKTSQLLAELNFEEDEEDTYYTKDLPIHACSYCGIHDPACVVYCNTSKKWFCNGRGNTSGSHIVNHLVRAKCKEVTLHKDGPLGETVLECYNCGCRNVFLLGFIPAKADSVVVLLCRQPCASQSSLKDINWDSSQWQPLIQDRCFLSWLVKIPSEQEQLRARQITAQQINKLEELWKENPSATLEDLEKPGVDEEPQHVLLRYEDAYQYQNIFGPLVKLEADYDKKLKESQTQDNITVRWDLGLNKKRIAYFTLPKTDSGNEDLVIIWLRDMRLMQGDEICLRYKGDLAPLWKGIGHVIKVPDNYGDEIAIELRSSVGAPVEVTHNFQVDFVWKSTSFDRMQSALKTFAVDETSVSGYIYHKLLGHEVEDVIIKCQLPKRFTAQGLPDLNHSQVYAVKTVLQRPLSLIQGPPGTGKTVTSATIVYHLARQGNGPVLVCAPSNIAVDQLTEKIHQTGLKVVRLCAKSREAIDSPVSFLALHNQIRNMDSMPELQKLQQLKDETGELSSADEKRYRALKRTAERELLMNADVICCTCVGAGDPRLAKMQFRSILIDESTQATEPECMVPVVLGAKQLILVGDHCQLGPVVMCKKAAKAGLSQSLFERLVVLGIRPIRLQVQYRMHPALSAFPSNIFYEGSLQNGVTAADRVKKGFDFQWPQPDKPMFFYVTQGQEEIASSGTSYLNRTEAANVEKITTKLLKAGAKPDQIGIITPYEGQRSYLVQYMQFSGSLHTKLYQEVEIASVDAFQGREKDFIILSCVRANEHQGIGFLNDPRRLNVALTRARYGVIIVGNPKALSKQPLWNHLLNYYKEQKVLVEGPLNNLRESLMQFSKPRKLVNTINPGARFMTTAMYDAREAIIPGSVYDRSSQGRPSSMYFQTHDQIGMISAGPSHVAAMNIPIPFNLVMPPMPPPGYFGQANGPAAGRGTPKGKTGRGGRQKNRFGLPGPSQTNLPNSQASQDVASQPFSQGALTQGYISMSQPSQMSQPGLSQPELSQDSYLGDEFKSQIDVALSQDSTYQGERAYQHGGVTGLSQY
For the molecule B4, the binding result is “binds”.

B5: XRN2 (protein, UniProt Q9H0D6 1-950)
chain: MGVPAFFRWLSRKYPSIIVNCVEEKPKECNGVKIPVDASKPNPNDVEFDNLYLDMNGIIHPCTHPEDKPAPKNEDEMMVAIFEYIDRLFSIVRPRRLLYMAIDGVAPRAKMNQQRSRRFRASKEGMEAAVEKQRVREEILAKGGFLPPEEIKERFDSNCITPGTEFMDNLAKCLRYYIADRLNNDPGWKNLTVILSDASAPGEGEHKIMDYIRRQRAQPNHDPNTHHCLCGADADLIMLGLATHEPNFTIIREEFKPNKPKPCGLCNQFGHEVKDCEGLPREKKGKHDELADSLPCAEGEFIFLRLNVLREYLERELTMASLPFTFDVERSIDDWVFMCFFVGNDFLPHLPSLEIRENAIDRLVNIYKNVVHKTGGYLTESGYVNLQRVQMIMLAVGEVEDSIFKKRKDDEDSFRRRQKEKRKRMKRDQPAFTPSGILTPHALGSRNSPGSQVASNPRQAAYEMRMQNNSSPSISPNTSFTSDGSPSPLGGIKRKAEDSDSEPEPEDNVRLWEAGWKQRYYKNKFDVDAADEKFRRKVVQSYVEGLCWVLRYYYQGCASWKWYYPFHYAPFASDFEGIADMPSDFEKGTKPFKPLEQLMGVFPAASGNFLPPSWRKLMSDPDSSIIDFYPEDFAIDLNGKKYAWQGVALLPFVDERRLRAALEEVYPDLTPEETRRNSLGGDVLFVGKHHPLHDFILELYQTGSTEPVEVPPELCHGIQGKFSLDEEAILPDQIVCSPVPMLRDLTQNTVVSINFKDPQFAEDYIFKAVMLPGARKPAAVLKPSDWEKSSNGRQWKPQLGFNRDRRPVHLDQAAFRTLGHVMPRGSGTGIYSNAAPPPVTYQGNLYRPLLRGQAQIPKLMSNMRPQDSWRGPPPLFQQQRFDRGVGAEPLLPWNRMLQTQNAAFQPNQYQMLAGPGGYPPRRDDRGGRQGYPREGRKYPLPPPSGRYNWN
For B5, the binding result is on record as “binds”.

B6: DDX1 (protein, UniProt Q92499 1-740)
chain: MAAFSEMGVMPEIAQAVEEMDWLLPTDIQAESIPLILGGGDVLMAAETGSGKTGAFSIPVIQIVYETLKDQQEGKKGKTTIKTGASVLNKWQMNPYDRGSAFAIGSDGLCCQSREVKEWHGCRATKGLMKGKHYYEVSCHDQGLCRVGWSTMQASLDLGTDKFGFGFGGTGKKSHNKQFDNYGEEFTMHDTIGCYLDIDKGHVKFSKNGKDLGLAFEIPPHMKNQALFPACVLKNAELKFNFGEEEFKFPPKDGFVALSKAPDGYIVKSQHSGNAQVTQTKFLPNAPKALIVEPSRELAEQTLNNIKQFKKYIDNPKLRELLIIGGVAARDQLSVLENGVDIVVGTPGRLDDLVSTGKLNLSQVRFLVLDEADGLLSQGYSDFINRMHNQIPQVTSDGKRLQVIVCSATLHSFDVKKLSEKIMHFPTWVDLKGEDSVPDTVHHVVVPVNPKTDRLWERLGKSHIRTDDVHAKDNTRPGANSPEMWSEAIKILKGEYAVRAIKEHKMDQAIIFCRTKIDCDNLEQYFIQQGGGPDKKGHQFSCVCLHGDRKPHERKQNLERFKKGDVRFLICTDVAARGIDIHGVPYVINVTLPDEKQNYVHRIGRVGRAERMGLAISLVATEKEKVWYHVCSSRGKGCYNTRLKEDGGCTIWYNEMQLLSEIEEHLNCTISQVEPDIKVPVDEFDGKVTYGQKRAAGGGSYKGHVDILAPTVQELAALEKEAQTSFLHLGYLPNQLFRTF
For B6, the binding entry was “binds”.
